The assay addresses T1, human Ly6E coated on ELISA plates (human) (UniProt Q16553).
T1 sequence: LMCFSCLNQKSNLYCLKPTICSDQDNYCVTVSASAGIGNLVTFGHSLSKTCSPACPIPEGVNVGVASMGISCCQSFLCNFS
In words: ELISA, plates coated with 50 ng human Ly6E per well; hybridoma clones. In general terms: In an ELISA, binding on a coated surface is turned into a signal by an enzyme label.

No constants are given. Whether binding was seen depends on the method and setting. Some entries that bind do so weakly or less than the wild type.

B1: rabbit anti-Ly6E antibody clone GEN-93-8-1 (antibody, V domains shown)
VH: QSVEESGGRLVTPGTPLTLTCATSGFSLSIYDMTWVRQAPGKGLEWIGVIYTSGGAYYANWAKGRFTISRTSTTVDLRMTSPTTEDTATYFCVRNWAHGSDLWGQGTLVTVSS
VL: DPVVTQTPSSASAAVGGTVSISCQSSQSVYNNNYLGWYQQKPGQPPKLLIYDASKLASGVPSRFKASGSGTQFALTISDLECDDAATYYCVGGYPGSLNVFGGGTEVVVK
notes: Rabbit monoclonal IgG; also called antibody GEN-93-8-1
For the molecule B1, the binding result is recorded as “binds”.

Values taken from patent US20170058042A1 (Genentech, published 2017).
